Test results from patent EP0375767B1, “PEPTIDES WITH […] REGARD TO A […] OF THE HIV TYPE IN SENSITIVE CELLS” (INSTITUT PASTEUR, priority 1988, dated 1995).
Part of at least one peptide drawing is inferred or uncertain, most often the ends. Some entries repeat one wording, which the source may state once for all of them. No end group written: not given here.

Test system: cellules tumorales cibles issues d'une tumeur de souris P815, transformées de façon stable par un gène HLA-A2
Assay: Cytotoxicity assay (51Cr release) with HIV-specific, HLA-A2-restricted cytotoxic T cells in the presence of peptide
Type: cell-based
Conditions: incubated with the peptide and in contact with HLA-A2-restricted, HIV-1-specific cytotoxic T cells

Compound | lyse de cellules tumorales transformées de façon stable avec un gène HLA-A2
HAGPIAPGQMREPRG [H15G, HAGPIAPGQMREPRG] | capables de favoriser une lyse de cellules tumorales
CSCC[C@H](NC(=O)[C@H](CCC(N)=O)NC(=O)[C@H](Cc1c[nH]cn1)NC(=O)CNC(=O)[C@H](CCC(=O)O)NC(=O)[C@@H](N)CCCCN)C(=O)N[C@@H](CCCCN)C(=O)N[C@@H](CC(=O)O)C(=O)N[C@@H](CS)C(=O)N[C@H](C(=O)N[C@@H](CCC(=O)O)C(=O)N[C@@H](CCCNC(=N)N)C(=O)N[C@@H](CCC(N)=O)C(=O)N[C@@H](C)C(=O)N[C@@H](CC(N)=O)C(=O)N[C@@H](Cc1ccccc1)C(=O)O)[C@@H](C)O [K16F, KEGHQMKDCTERQANF] | capables de favoriser une lyse de cellules tumorales
CC(C)C[C@H](NC(=O)[C@H](Cc1ccccc1)NC(=O)[C@H](CC(N)=O)NC(=O)CN)C(=O)N[C@@H](CCC(N)=O)C(=O)N[C@@H](CO)C(=O)N[C@@H](CCCNC(=N)N)C(=O)N1CCC[C@H]1C(=O)N[C@@H](CCC(=O)O)C(=O)N1CCC[C@H]1C(=O)N[C@H](C(=O)N[C@@H](C)C(=O)N1CCC[C@H]1C(=O)N1CCC[C@H]1C(=O)N[C@@H](C)C(=O)O)[C@@H](C)O [gag 3, GNFLQSRPEPTAPPA] | capables de favoriser une lyse de cellules tumorales
